Measurements reported in paper PMC12669790.
Results are given in words; binding and its absence hold for the method and conditions named. Binding seen in cells or lysates may run through a third protein. Some results given as binding are weak or reduced against the parent protein; the word gives no strength.

Chains of the proteins cited; added tags and fusions are not shown.
UniProt P21796: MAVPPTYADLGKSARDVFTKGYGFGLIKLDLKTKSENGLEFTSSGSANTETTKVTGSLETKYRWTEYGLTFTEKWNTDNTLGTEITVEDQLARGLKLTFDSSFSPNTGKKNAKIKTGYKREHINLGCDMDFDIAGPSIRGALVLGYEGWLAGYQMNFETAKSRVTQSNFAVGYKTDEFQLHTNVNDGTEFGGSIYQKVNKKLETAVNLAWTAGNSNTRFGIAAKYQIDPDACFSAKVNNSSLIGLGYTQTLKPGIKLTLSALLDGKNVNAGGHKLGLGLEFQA

Target: T1, ETS proto-oncogene 1 (ETS1) (human (endogenous in HUVEC)) (UniProt P14921)
T1 sequence: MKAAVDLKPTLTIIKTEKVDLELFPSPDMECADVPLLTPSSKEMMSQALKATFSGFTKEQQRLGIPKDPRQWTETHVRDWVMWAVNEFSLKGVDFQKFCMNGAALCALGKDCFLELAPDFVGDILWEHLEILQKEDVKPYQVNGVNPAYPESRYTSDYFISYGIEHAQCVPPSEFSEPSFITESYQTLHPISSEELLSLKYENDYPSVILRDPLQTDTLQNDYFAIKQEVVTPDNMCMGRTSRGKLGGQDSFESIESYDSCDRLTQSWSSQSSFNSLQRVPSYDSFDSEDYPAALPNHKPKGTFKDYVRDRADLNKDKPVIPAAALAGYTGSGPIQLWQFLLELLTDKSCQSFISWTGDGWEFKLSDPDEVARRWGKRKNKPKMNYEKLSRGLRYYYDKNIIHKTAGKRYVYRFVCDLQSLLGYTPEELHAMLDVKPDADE
Test: co-IP; HUVEC lysate (Co-IP kit), target antibody overnight at 4 °C, beads overnight at 4 °C, western blot; cells with LPS, with or without the FASN inhibitor C75

binding: binds
Substance: voltage-dependent anion channel 1 (VDAC1) (from UniProt P21796 1-283)
